The target in the assay is T1, PRR19 (yeast two-hybrid fusion) (mouse) (UniProt B2RW88).
T1 sequence: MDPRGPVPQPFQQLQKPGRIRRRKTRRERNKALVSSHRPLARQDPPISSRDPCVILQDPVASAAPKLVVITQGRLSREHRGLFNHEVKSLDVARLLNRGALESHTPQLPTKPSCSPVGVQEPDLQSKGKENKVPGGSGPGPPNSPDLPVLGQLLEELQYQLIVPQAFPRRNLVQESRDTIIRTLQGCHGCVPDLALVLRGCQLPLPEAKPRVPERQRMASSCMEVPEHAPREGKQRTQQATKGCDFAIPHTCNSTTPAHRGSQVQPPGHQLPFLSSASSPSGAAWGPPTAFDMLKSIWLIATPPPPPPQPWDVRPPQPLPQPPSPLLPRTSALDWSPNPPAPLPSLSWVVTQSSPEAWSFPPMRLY
As to the kind of experiment: two-hybrid; pairwise, Y2HGold yeast strain, Gal4-BD and Gal4-AD vectors; growth 2-3 days on (-Leu, -Trp, -His, -Ade) plates.

These are yes or no findings as the source states them, for the method shown. A result given as binding can be weak or reduced; the word gives no strength. Where a sequence is shown, tags or fusion partners need not be part of it.

In paper PMC7303132 one finds binding data, which are given here for one substance.

On to “CNTD1Q, the protein product of Cntd1^Q allele (yeast two-hybrid fusion) (from UniProt Q9D995-3)”, for which the binding entry is “binds”.
